PMC6838151 (Scientific Reports, 2019)

System: hASCs
Assay: Confocal imaging of mitochondrial network (MitoRed) and F-actin (Phalloidin Atto 590) in hASCs
Format: cell-based, human
Conditions: 20 µM, 24 h
Description: The mitochondrial network was visualized using MitoRed staining. After 24-hours treatment with either Ke, KeP or KeOP, the media were removed and replaced with MitoRed dye in 1:1000 dilution in fresh complete media. Cells were incubated for 30 minutes at 37 °C, then washed with Phosphate Buffered Saline (PBS), fixed with 4% paraformaldehyde (PFA) solution, washed three times and nuclei were counterstained with diamidino-2-phenylindole (DAPI).
In order to perform F-actin imaging, cells were fixed with 4% PFA solution, washed with PBS and then permeabilized using 0.5% TX-100 (incubation 15 minutes, room temperature). The cells were rinsed and incubated with Phalloidin-Atto 590 solution in PBS (dilution 1:1000) at 37 °C for 30 minutes in the dark. After washing, the cells were counterstained with DAPI.
Cells were observed and images were taken using confocal microscopy performed with a Leica TCS-SP8 laser scanning confocal microscope. Data were further processed with the use of ImageJ software.

Compound	growth pattern (phalloidin staining)
Clc1ccc([C@@]2(Cn3ccnc3)OC[C@H](COc3ccc(N4CCN(CP(c5ccccc5)c5ccccc5)CC4)cc3)O2)c(Cl)c1 (racemic) [KeP, Ph2PCH2-Ke]	loose growth pattern
CC(=O)N1CCN(c2ccc(OCC3COC(Cn4ccnc4)(c4ccc(Cl)cc4Cl)O3)cc2)CC1 (centres unmarked) [Ke, ketoconazole, reference compound]	multilayer growth pattern
